Measurements from patent publication US20250084158A1.
Results are given in words; binding and its absence hold for the method and conditions named. Some binding calls cover weakened binding; strength is not graded here. For some of these results: Tags and fused reporters may be left off the sequences shown.

T1: huCLL1-His (human) (UniProt Q5QGZ9)
T1 sequence (looked up): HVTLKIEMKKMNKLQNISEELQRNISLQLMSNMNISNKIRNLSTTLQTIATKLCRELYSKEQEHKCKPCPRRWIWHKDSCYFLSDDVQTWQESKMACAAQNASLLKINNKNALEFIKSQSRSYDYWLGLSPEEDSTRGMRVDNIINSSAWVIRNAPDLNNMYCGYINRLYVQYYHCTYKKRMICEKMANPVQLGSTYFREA

B1: ch84A2(NA/N12S) (antibody, human IgG1, kappa, N297A, V domains shown)
VH: EVQLQQSGPELVKSGASVKMSCKASGYTFTSYVIHWVKQMPGQGLEWIGLFNPYNDDVNYNEKFKGKATLTSDKYSSTAYLDLSSLTSEDSAVYYCAREGVHYGRPWFGYWGQGTLVTVSA
VL: DIKMTQSPSSMSASLGERVTITCKASQDIKSYLNWFQQKPGKSPKTLIYRASRLVDGVPARFSGSESGQDYSLTISSLEFEDMGIYYCLQYDEFPLTFGAGTKLELKR
B2: ch16C6(NA) (antibody, human IgG1, kappa, N297A, V domains shown)
VH: EVQLQQSGPELVKPGASVKISCKASGYSFTGYYMHWVKQSHVKSLEWIGHVNPYNGATSFNRNFKDKASLTVDKSSSTAYMELHSLTSEDSAVYYCGRSAYGYYERHFDYWGQGTTLTVSS
VL: DIVLTQSPASLAVSLGQRATISCKASQSVDYDADSYMNWYQQKPGQPPKLLIYAASNLQSGIPARFSGSGSGTDFTLNIHPVEEEDAATYYCQQSDRDPLTFGAGTKLELKR
B3: ch33C2(NA) (antibody, human IgG1, kappa, N297A, V domains shown)
VH: EVQLQQSGPELVKPGASMKISCKASGYSFTGYAMNWVKQSHGKNLEWIGLINPYNGGAMYNQKFKGKATLTVDKSTSTAYMELLSLTSEDSAVYYCARDYRYEGHLDYWGQGTTLTVSS
VL: QIVLTQSPVIMSASPGEKVTMTCSATSSVSYMHWYQQKSGTSPKRWIYDTSKLASGVPVRFSGSGSGTSYSLTISRMEAEDAATYYCQQWSSDSPTFGVGTKLELKR

Legend:
[1] = target: human CLL-1 on cells (human) (UniProt Q5QGZ9); test: FACS, HL60 and U937 cells
[2] = target: hFc-Cynomolgus CLL1 (cynomolgus); test: ELISA, 50 and 100 ng/well coated antigen; stronger than reference 6E7
huCLL1-His (human) = target: T1, huCLL1-His (human); test: ELISA, coated antigen
hFc-Human CLL1 (human) = test: ELISA, coated antigen
[3] = target: human CLL-1 on cells (human) (UniProt Q5QGZ9); test: FACS on CLL1-expressing cell lines

binding [1]	binding [2]	binding (huCLL1-His (human))	binding (hFc-Human CLL1 (human))	binding [3]	Binder
binds	binds	binds	binds	binds	B1
		binds			B2
		binds			B3
